Data source: PubChem BioAssay AID1224828 (NIAID, 2016)

- Screen: 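Find genes required for NF-kappaB p65 moving into the nucleus after LPS in mouse macrophages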 (primary screen)
- Cells: mouse RAW264.7 G9 macrophage reporter cells (GFP-p65, Tnf promoter-mCherry)
- Knock-down reagent: siRNA pool against mouse genes, 100 nM
- Time to read-out: 2 days siRNA transfection, then 40 min LPS before fixation
- Treatment: LPS (Salmonella minnesota R595) at 10 ng/ml
- Read-out: 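Microscopy ratio of nuclear to perinuclear-ring GFP-p65 signal, scaled to the plate median; gene score is the average of two replicate robust z-scores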
- Reading the numbers: p65 translocation robust z-score: higher = more nuclear NF-kappaB p65 after LPS than the plate median; nuclear/cytoplasmic p65 ratio: higher = more nuclear NF-kappaB p65
- Call rule: 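Active if robust z is above 3.3 (negative regulators) or below -1.56, the Tlr4 control median (positive regulators); activity score 50 or more; control wells not called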
- Meaning of the calls: active = hit (p65 shift raised or lowered); inactive = no clear change
The deposit covers about 17,000 reagents; below is a random part of them. In the full data, 762 (4.5%) were called active. 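Active calls include both raised and lowered p65 entry, mostly lowered; wells with fewer than 50 cells lack a z-score.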 The raw values are shown without normalisation. Reagents against one gene are numbered here.

no.	Gene	pool no.	p65 translocation robust z-score	nuclear/cytoplasmic p65 ratio, rep 1	nuclear/cytoplasmic p65 ratio, rep 2	low cell count flag	activity call
1	Stoml2 (GeneID 66592)	1	0.25	1.44	1.26	enough cells to score	inactive
2	C1galt1c1 (GeneID 59048)	1		1.65	1.33	fewer than 50 cells per well; well left out of scoring	inactive
3	Sugct (GeneID 192136)	1	0.4	1.62	1.8	enough cells to score	inactive
4	Golga4 (GeneID 54214)	1	-0.34	1.46	1.53	enough cells to score	inactive
5	Ska1 (GeneID 66468)	1		1.32	1.39	fewer than 50 cells per well; well left out of scoring	inactive
6	Slamf1 (GeneID 27218)	1	-0.5	1.45	1.51	enough cells to score	inactive
7	Dema1 (GeneID 67358)	1	-1.09	1.25	1.27	enough cells to score	inactive
8	Kmt5b (GeneID 225888)	1	1.2	1.76	1.99	enough cells to score	inactive
9	Smarce1 (GeneID 57376)	1	-0.05	1.62	1.48	enough cells to score	inactive
10	Ahctf1 (GeneID 226747)	1	-1.2	1.29	1.23	enough cells to score	inactive
11	Fam193b (GeneID 212483)	1	-0.16	1.42	1.97	enough cells to score	inactive
12	Or5p58 (GeneID 258728)	1	-0.39	1.02	1.22	enough cells to score	inactive
13	Bbln (GeneID 73737)	1	-0.66	1.31	1.49	enough cells to score	inactive
14	Gfpt1 (GeneID 14583)	1	-0.41	1.47	1.46	enough cells to score	inactive
15	Arpp21 (GeneID 74100)	1	-0.28	1.28	1.24	enough cells to score	inactive
16	Arpp21 (GeneID 74100)	2	0.06	1.57	1.43	enough cells to score	inactive
17	Snu13 (GeneID 20826)	1		1.41	1.13	fewer than 50 cells per well; well left out of scoring	inactive
18	Stk4 (GeneID 58231)	1		1.17	1.26	fewer than 50 cells per well; well left out of scoring	inactive
19	Notch2 (GeneID 18129)	1	1.46	1.69	1.56	enough cells to score	inactive
20	Cd93 (GeneID 17064)	1	-0.44	1.53	1.56	enough cells to score	inactive
21	Chst4 (GeneID 26887)	1	0.24	1.63	1.82	enough cells to score	inactive
22	2610524H06Rik (GeneID 330173)	1		1.5	1.66	fewer than 50 cells per well; well left out of scoring	inactive
23	Gm16897 (GeneID 320400)	1	0	1.38	1.5	enough cells to score	inactive
24	Rab32 (GeneID 67844)	1	-0.32	1.47	1.47	enough cells to score	inactive
25	Man2a2 (GeneID 140481)	1	1.49	1.88	1.82	enough cells to score	inactive
26	Firrm (GeneID 381306)	1	1.27	1.85	1.79	enough cells to score	inactive
27	Sh3bgrl2 (GeneID 212531)	1	-0.09	1.35	1.52	enough cells to score	inactive
28	Agmo (GeneID 319660)	1	-1.28	1.15	1.42	enough cells to score	inactive
29	Enam (GeneID 13801)	1	-0.01	1.5	1.33	enough cells to score	inactive
30	Herc3 (GeneID 73998)	1	-0.23	1.65	1.48	enough cells to score	inactive
31	Spats2 (GeneID 72572)	1	0.78	1.52	1.32	enough cells to score	inactive
32	Dmac1 (GeneID 66928)	1		1.46	1.23	fewer than 50 cells per well; well left out of scoring	inactive
33	Prrg4 (GeneID 228413)	1	-0.01	1.38	1.54	enough cells to score	inactive
34	Necab3 (GeneID 56846)	1	0.91	1.76	1.62	enough cells to score	inactive
35	Mrpl19 (GeneID 56284)	1	-0.04	1.82	1.55	enough cells to score	inactive
36	Spata21 (GeneID 329972)	1		1.09	1.3	fewer than 50 cells per well; well left out of scoring	inactive
37	Atp6v1g2 (GeneID 66237)	1	0.53	1.63	1.64	enough cells to score	inactive
38	Mela (GeneID 17276)	1	-0.12	1.68	1.54	enough cells to score	inactive
39	Gng12 (GeneID 14701)	1	-0.67	1.47	1.43	enough cells to score	inactive
40	Or51a42 (GeneID 259081)	1	0.31	1.51	1.28	enough cells to score	inactive
41	Glt1d1 (GeneID 319804)	1	0.95	1.33	1.59	enough cells to score	inactive
42	Mos (GeneID 17451)	1		1.55	1.23	fewer than 50 cells per well; well left out of scoring	inactive
43	Naca (GeneID 17938)	1	0.11	1.82	1.59	enough cells to score	inactive
44	Aadac (GeneID 67758)	1	1.64	1.66	1.68	enough cells to score	inactive
45	Srsf1 (GeneID 110809)	1		1.4	1.16	fewer than 50 cells per well; well left out of scoring	inactive
46	Vmn1r84 (GeneID 171267)	1	-1.16	1.24	1.18	enough cells to score	inactive
47	Nup155 (GeneID 170762)	1	-0.17	1.78	1.43	enough cells to score	inactive
48	Acvr2b (GeneID 11481)	1	-1.44	1.45	1.2	enough cells to score	inactive
49	Adprhl1 (GeneID 234072)	1	-0.3	1.6	1.55	enough cells to score	inactive
50	Pld1 (GeneID 18805)	1	0.01	1.52	1.39	enough cells to score	inactive
51	Zmym3 (GeneID 56364)	1	1.81	1.66	1.45	enough cells to score	inactive
52	Adgrg3 (GeneID 54672)	1	0.66	1.58	1.7	enough cells to score	inactive
53	X99300 (retired record) (GeneID 57359)	1	0.26	1.41	1.31	enough cells to score	inactive
54	Ubxn4 (GeneID 67812)	1		1.1	1.07	fewer than 50 cells per well; well left out of scoring	inactive
55	Gatad2b (GeneID 229542)	1	-0.56	1.53	1.53	enough cells to score	inactive
56	Abi3 (GeneID 66610)	1	-1.17	1.36	1.57	enough cells to score	inactive
57	Pus1 (GeneID 56361)	1	0.82	1.56	1.24	enough cells to score	inactive
58	Ly6g5c (GeneID 114652)	1	-1.12	1.63	1.31	enough cells to score	inactive
59	Mturn (GeneID 68235)	1	0.07	1.43	1.45	enough cells to score	inactive

9 of these entries, reformatted.
{"Gene":"Ahctf1 (GeneID 226747)","pool no.":1,"p65 translocation robust z-score":-1.2,"nuclear/cytoplasmic p65 ratio, rep 1":1.29,"nuclear/cytoplasmic p65 ratio, rep 2":1.23,"low cell count flag":"enough cells to score","activity call":"inactive"}
{"Gene":"Fam193b (GeneID 212483)","pool no.":1,"p65 translocation robust z-score":-0.16,"nuclear/cytoplasmic p65 ratio, rep 1":1.42,"nuclear/cytoplasmic p65 ratio, rep 2":1.97,"low cell count flag":"enough cells to score","activity call":"inactive"}
{"Gene":"Or5p58 (GeneID 258728)","pool no.":1,"p65 translocation robust z-score":-0.39,"nuclear/cytoplasmic p65 ratio, rep 1":1.02,"nuclear/cytoplasmic p65 ratio, rep 2":1.22,"low cell count flag":"enough cells to score","activity call":"inactive"}
{"Gene":"Bbln (GeneID 73737)","pool no.":1,"p65 translocation robust z-score":-0.66,"nuclear/cytoplasmic p65 ratio, rep 1":1.31,"nuclear/cytoplasmic p65 ratio, rep 2":1.49,"low cell count flag":"enough cells to score","activity call":"inactive"}
{"Gene":"Gfpt1 (GeneID 14583)","pool no.":1,"p65 translocation robust z-score":-0.41,"nuclear/cytoplasmic p65 ratio, rep 1":1.47,"nuclear/cytoplasmic p65 ratio, rep 2":1.46,"low cell count flag":"enough cells to score","activity call":"inactive"}
{"Gene":"Arpp21 (GeneID 74100)","pool no.":1,"p65 translocation robust z-score":-0.28,"nuclear/cytoplasmic p65 ratio, rep 1":1.28,"nuclear/cytoplasmic p65 ratio, rep 2":1.24,"low cell count flag":"enough cells to score","activity call":"inactive"}
{"Gene":"Arpp21 (GeneID 74100)","pool no.":2,"p65 translocation robust z-score":0.06,"nuclear/cytoplasmic p65 ratio, rep 1":1.57,"nuclear/cytoplasmic p65 ratio, rep 2":1.43,"low cell count flag":"enough cells to score","activity call":"inactive"}
{"Gene":"Snu13 (GeneID 20826)","pool no.":1,"nuclear/cytoplasmic p65 ratio, rep 1":1.41,"nuclear/cytoplasmic p65 ratio, rep 2":1.13,"low cell count flag":"fewer than 50 cells per well; well left out of scoring","activity call":"inactive"}
{"Gene":"Stk4 (GeneID 58231)","pool no.":1,"nuclear/cytoplasmic p65 ratio, rep 1":1.17,"nuclear/cytoplasmic p65 ratio, rep 2":1.26,"low cell count flag":"fewer than 50 cells per well; well left out of scoring","activity call":"inactive"}
